Results from publication PMC6804044, “Design, Synthesis and Biological Evaluation of Pentacyclic Triterpene Derivatives: Optimization of Anti-ABL Kinase Activity” (Molecules, 2019).

Assays:
Assay type in all cases: cell-based
MT-2 = assay: MTT cell viability assay, MT-2; conditions: Homo sapiens, MT2, 24 h exposure
Description: (§1) A549 human lung carcinoma and HeLa human cervical carcinoma cell lines were cultured in Dulbecco’s Modified Eagle Medium (DMEM). MCF7 human breast cancer and leukemic (K562, HL-60, MT-2 and Jurkat) cells, and PBMC (Precision Bioservices, Frederic, MD, USA) were cultured in RPMI 1640. All media were purchased from FUJIFILM Wako (Osaka, Japan) and supplemented with 10% fetal bovine serum (FBS) (Sigma-Aldrich, St. Louis, MO, USA) and 89 μg/mL streptomycin (Meiji Seika Pharma, Tokyo, Japan) at 37 °C in a humid atmosphere and 5% CO2. In experiments, all cancer cell lines and PBMC were cultured in 24-well and 96-well plates (Iwaki brand Asahi Glass, Chiba, Japan) at 2 × 10^4 cells/mL and 1 × 10^6 cells/mL concentrations, respectively for 24 h. […] The concentration of DMSO in the final culture medium was 1%, which had no effect on the cell viability.
(§2) The cells were exposed to various concentrations (1–100 μM) of the compounds for 24 h at 37 °C. The cells were then stained with MTT solution and incubated for additional 4 h. At the end of this period, supernatants were removed and 100 μL DMSO was added to each well to solubilize the formazan crystals. The absorbance of the solution was determined on the Infinitive M1000 (Tecan, Mannedorf, Switzerland) plate reader at a wavelength of 550 nm with background subtraction at 630 nm.

Jurkat = assay: MTT cell viability assay, Jurkat; conditions: Homo sapiens, 24 h exposure
Description: as §1, §2

MCF7 human breast cancer = assay: MTT cell viability assay, MCF7; conditions: 24 h exposure
Description: as §1, §2

[1] = system: A549 human lung carcinoma; assay: MTT cell viability assay, A549; conditions: 24 h exposure
Description: as §1, §2

HL-60 = assay: MTT cell viability assay, HL-60; conditions: Homo sapiens, 24 h exposure
Description: as §1, §2

Cc1ccc(NC(=O)c2ccc(CN3CCN(C)CC3)cc2)cc1Nc1nccc(-c2cccnc2)n1 [Imatinib, reference compound]
IC50 (MT-2): 13 ± 1.33 µM
IC50 (Jurkat): 9.69 ± 0.63 µM
IC50 (MCF7 human breast cancer): 90.6 ± 5.81 µM
IC50 [1]: 95.1 ± 8.33 µM
IC50 (HL-60): 11.8 ± 1.08 µM
